Measurements: PMC5323126
These are yes or no findings as the source states them, for the method shown. In cells and extracts the contact can be indirect. Some results given as binding are weak or reduced against the parent protein; the word gives no strength. For part of these data: Tags and fused reporters may be left off the sequences shown.

By UniProt entry, the sequences of proteins in these tests, tags left out.
UniProt Q14258: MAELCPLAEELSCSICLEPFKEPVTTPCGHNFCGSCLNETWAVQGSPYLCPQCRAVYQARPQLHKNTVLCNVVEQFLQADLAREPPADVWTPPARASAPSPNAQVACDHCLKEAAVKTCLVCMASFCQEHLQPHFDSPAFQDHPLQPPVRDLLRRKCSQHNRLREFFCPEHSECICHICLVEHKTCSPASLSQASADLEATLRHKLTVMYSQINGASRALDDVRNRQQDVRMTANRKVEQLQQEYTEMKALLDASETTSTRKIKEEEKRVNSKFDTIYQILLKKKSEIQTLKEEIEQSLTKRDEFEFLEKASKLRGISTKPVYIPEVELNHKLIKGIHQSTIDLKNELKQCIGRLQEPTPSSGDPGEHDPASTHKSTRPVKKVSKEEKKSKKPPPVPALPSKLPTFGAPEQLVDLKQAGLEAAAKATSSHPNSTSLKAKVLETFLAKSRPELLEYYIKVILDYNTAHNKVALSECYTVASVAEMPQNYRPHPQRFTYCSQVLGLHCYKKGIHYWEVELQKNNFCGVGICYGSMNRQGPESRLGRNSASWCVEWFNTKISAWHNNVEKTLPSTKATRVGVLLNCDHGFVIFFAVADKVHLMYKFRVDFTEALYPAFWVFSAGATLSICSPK

Tests used:
GST-ERG = target: T1, GST-ERG (UniProt P11308); test: pull-down; GST-ERG or GST-tagged CAD domain of ERG as bait; whole VCaP cell extract; endogenous TRIM25 detected; only the target purified
T1 sequence: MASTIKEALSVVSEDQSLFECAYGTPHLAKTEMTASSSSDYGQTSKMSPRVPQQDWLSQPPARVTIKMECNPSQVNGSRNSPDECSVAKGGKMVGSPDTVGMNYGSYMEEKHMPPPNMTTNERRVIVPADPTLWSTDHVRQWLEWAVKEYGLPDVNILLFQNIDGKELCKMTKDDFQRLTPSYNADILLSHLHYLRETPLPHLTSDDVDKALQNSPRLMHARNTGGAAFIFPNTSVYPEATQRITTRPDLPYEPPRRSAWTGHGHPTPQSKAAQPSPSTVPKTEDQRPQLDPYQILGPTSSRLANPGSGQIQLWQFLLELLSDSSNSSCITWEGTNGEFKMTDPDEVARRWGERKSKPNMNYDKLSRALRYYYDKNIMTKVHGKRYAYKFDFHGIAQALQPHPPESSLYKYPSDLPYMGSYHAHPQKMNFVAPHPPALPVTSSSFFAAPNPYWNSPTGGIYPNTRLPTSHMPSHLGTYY

[1] = target: T2, ERG-V5 (full-length Ets related gene protein, V5-tagged) (UniProt P11308); test: co-IP; V5-tagged ERG variants ectopically expressed in HEK293T; endogenous TRIM25 co-immunoprecipitated with an antibody against V5
T2 sequence: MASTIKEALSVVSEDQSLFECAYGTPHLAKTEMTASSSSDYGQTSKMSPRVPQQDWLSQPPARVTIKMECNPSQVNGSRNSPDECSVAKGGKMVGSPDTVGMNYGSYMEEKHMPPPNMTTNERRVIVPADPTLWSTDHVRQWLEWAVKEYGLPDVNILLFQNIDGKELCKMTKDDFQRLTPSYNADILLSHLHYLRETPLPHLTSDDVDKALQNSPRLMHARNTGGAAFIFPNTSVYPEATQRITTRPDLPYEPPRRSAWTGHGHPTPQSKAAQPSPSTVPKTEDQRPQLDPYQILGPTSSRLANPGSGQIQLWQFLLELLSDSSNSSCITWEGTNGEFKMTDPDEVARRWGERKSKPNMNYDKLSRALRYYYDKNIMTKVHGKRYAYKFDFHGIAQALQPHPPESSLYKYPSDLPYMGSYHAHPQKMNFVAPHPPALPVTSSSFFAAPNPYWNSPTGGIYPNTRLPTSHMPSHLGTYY

[2] = target: T3, ERG-ΔN99 (N-terminally truncated ERG lacking 99 amino acids) (UniProt P11308); test: co-IP; Figure 2A: TRIM25 with ERG-FL, ERG-ΔN39 and ERG-ΔN99; cells, tags and antibody not told for this panel
T3 sequence: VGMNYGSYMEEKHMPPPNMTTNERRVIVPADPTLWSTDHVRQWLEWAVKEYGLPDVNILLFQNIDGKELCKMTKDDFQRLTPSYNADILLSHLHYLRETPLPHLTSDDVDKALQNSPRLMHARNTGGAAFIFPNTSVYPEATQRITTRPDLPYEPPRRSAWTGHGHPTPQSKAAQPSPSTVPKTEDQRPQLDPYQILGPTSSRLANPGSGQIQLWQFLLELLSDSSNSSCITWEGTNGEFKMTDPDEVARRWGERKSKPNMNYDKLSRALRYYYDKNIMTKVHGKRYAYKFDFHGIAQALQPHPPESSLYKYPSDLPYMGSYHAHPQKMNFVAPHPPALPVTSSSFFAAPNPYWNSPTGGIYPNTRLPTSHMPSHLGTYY

[3] = target: T2, ERG-V5 (full-length Ets related gene protein, V5-tagged); test: as above
[4] = target: T4, ERG-ΔN39 (N-terminally truncated ERG lacking 39 amino acids) (UniProt P11308); test: as above
T4 sequence: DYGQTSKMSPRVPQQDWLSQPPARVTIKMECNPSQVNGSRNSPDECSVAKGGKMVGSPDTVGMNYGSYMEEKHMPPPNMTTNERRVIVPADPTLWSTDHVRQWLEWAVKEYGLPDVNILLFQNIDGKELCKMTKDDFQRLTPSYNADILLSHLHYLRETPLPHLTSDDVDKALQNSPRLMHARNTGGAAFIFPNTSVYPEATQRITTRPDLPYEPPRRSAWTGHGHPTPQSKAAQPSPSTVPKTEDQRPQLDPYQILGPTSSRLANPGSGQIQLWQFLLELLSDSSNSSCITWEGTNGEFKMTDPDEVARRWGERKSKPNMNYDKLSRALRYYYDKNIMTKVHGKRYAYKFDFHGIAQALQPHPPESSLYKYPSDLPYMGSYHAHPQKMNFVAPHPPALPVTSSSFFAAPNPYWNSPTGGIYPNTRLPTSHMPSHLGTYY

[5] = target: TRIM25-Flag (full-length) (UniProt Q14258); test: co-IP; Flag-tagged TRIM25 variants and full-length ERG-HA ectopically expressed in HEK293T

Tripartite motif-containing protein 25 (TRIM25), endogenous in VCaP cells (from UniProt Q14258 1-630)
binding (GST-ERG): binds

TRIM25, endogenous in HEK293T cells (from UniProt Q14258 1-630)
binding [1]: binds

TRIM25 as in the co-immunoprecipitation of Figure 2A (from UniProt Q14258 1-630)
binding [2]: binds
binding [3]: binds
binding [4]: binds

B1: ERG-HA (full-length HA-tagged ERG) (protein, UniProt P11308 1-479)
chain: MASTIKEALSVVSEDQSLFECAYGTPHLAKTEMTASSSSDYGQTSKMSPRVPQQDWLSQPPARVTIKMECNPSQVNGSRNSPDECSVAKGGKMVGSPDTVGMNYGSYMEEKHMPPPNMTTNERRVIVPADPTLWSTDHVRQWLEWAVKEYGLPDVNILLFQNIDGKELCKMTKDDFQRLTPSYNADILLSHLHYLRETPLPHLTSDDVDKALQNSPRLMHARNTGGAAFIFPNTSVYPEATQRITTRPDLPYEPPRRSAWTGHGHPTPQSKAAQPSPSTVPKTEDQRPQLDPYQILGPTSSRLANPGSGQIQLWQFLLELLSDSSNSSCITWEGTNGEFKMTDPDEVARRWGERKSKPNMNYDKLSRALRYYYDKNIMTKVHGKRYAYKFDFHGIAQALQPHPPESSLYKYPSDLPYMGSYHAHPQKMNFVAPHPPALPVTSSSFFAAPNPYWNSPTGGIYPNTRLPTSHMPSHLGTYY
binding [5]: binds
